Experimental data: patent publication US20240218030A1
No constants are given. Whether binding was seen depends on the method and setting. Some binding calls cover weakened binding; strength is not graded here.

Target: human transferrin receptor-Fc tag standard (human) (UniProt P02786)
Assay: ELISA on plate-coated human TfR-Fc with anti-His detection

- binding: binds
B1: huHF_Mutant2-dual (designed binder)
chain: MTTASTSQVRQNYHAASEAAINAQINLELYASYVYLSMSYYFDRDDVALKNFAKYFLHQSHEEREHAEKLMKLQNQRGGRIALADIQKPDCDDGGSYGSLYAFDIWESGLNAMECALHLEKNVNQSLLALHALATAKNDPHLCDFIETHYLNEQVKAIKELGDHVTNLRKMGAPESGLAEYLFDKHTLGDSDNESMPSFITLASLSTWEGYFDF
